Results from paper doi:10.1101/2022.09.13.507836.

Target: T1, SE (bait of the IP-MS of SE complexes) (Arabidopsis) (UniProt Q9ZVD0)
T1 sequence: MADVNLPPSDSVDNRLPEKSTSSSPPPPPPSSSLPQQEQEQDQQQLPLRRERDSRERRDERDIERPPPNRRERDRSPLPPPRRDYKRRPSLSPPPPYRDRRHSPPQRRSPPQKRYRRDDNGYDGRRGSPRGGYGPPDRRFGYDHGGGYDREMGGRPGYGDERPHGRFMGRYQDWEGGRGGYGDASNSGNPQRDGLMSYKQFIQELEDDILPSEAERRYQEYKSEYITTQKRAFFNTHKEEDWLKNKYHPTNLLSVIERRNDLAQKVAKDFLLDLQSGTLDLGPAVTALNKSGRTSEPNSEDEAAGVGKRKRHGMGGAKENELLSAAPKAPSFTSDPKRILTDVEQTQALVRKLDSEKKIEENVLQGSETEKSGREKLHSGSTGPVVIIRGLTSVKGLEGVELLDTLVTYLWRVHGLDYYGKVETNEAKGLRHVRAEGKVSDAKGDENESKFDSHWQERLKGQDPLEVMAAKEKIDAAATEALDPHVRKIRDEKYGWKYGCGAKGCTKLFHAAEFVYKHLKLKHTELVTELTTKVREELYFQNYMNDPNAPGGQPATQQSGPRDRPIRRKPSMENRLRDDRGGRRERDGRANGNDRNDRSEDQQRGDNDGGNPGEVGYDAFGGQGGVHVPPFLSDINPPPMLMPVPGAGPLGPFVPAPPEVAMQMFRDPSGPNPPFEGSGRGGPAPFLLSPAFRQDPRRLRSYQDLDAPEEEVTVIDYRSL
Experiment: affinity purification with mass spectrometry

binding: binds
Substance: DSPPL9/SAID1 (recovered in the IP-MS of SE complexes) (Arabidopsis)

These are yes or no findings as the source states them, for the method shown. In cells and extracts the contact can be indirect. A yes stands for co-enrichment or nearness to the bait. Other partners may have been found.
